Source: US20190375815A1 (Novartis, published 2019)
These are yes or no findings as the source states them, for the method shown. Some results given as binding are weak or reduced against the parent protein; the word gives no strength.

Sequences of proteins named here, by UniProt entry; tags and fusion partners are left off. Residues count along the entry.
UniProt P20273, residues 20-687: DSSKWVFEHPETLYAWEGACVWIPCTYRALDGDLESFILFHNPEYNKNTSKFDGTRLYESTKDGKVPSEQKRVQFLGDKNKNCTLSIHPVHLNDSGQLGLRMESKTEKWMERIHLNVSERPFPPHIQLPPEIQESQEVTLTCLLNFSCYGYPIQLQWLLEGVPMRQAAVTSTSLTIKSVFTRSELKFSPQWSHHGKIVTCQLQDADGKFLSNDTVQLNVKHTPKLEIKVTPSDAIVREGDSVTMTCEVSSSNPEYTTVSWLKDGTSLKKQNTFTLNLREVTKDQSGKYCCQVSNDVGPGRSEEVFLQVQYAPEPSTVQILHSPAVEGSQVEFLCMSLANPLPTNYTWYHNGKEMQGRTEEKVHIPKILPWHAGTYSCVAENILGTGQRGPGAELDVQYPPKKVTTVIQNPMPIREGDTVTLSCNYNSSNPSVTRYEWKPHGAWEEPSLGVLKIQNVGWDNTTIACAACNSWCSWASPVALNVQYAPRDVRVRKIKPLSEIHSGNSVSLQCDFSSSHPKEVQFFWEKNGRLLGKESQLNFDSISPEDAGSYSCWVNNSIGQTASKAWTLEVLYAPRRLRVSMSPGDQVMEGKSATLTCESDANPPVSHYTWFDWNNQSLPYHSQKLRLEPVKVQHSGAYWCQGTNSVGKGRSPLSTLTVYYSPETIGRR

Tests used:
CD22-Fc [1] = molecular target: CD22-Fc (UniProt P20273); assay: flow cytometry of JNL cells transduced with both TCARs
CD22-Fc [2] = molecular target: CD22-Fc (UniProt P20273); assay: flow cytometry of CD22-TCAR transduced JNL cells, CD22-Fc and anti-Fc secondary antibody
CD22-Fc [3] = molecular target: CD22-Fc (UniProt P20273); assay: flow cytometry of JNL cells transduced with both TCARs, CD22-Fc and anti-Fc secondary antibody

Measured: binding

B1: CD22-65scFv-G4S-CD3eECDTM-41BB (protein)
chain: EVQLQQSGPGLVKPSQTLSLTCAISGDSMLSNSDTWNWIRQSPSRGLEWLGRTYHRSTWYDDYASSVRGRVSINVDTSKNQYSLQLNAVTPEDTGVYYCARVRLQDGNSWSDAFDVWGQGTMVTVSSGGGGSGGGGSGGGGSQSALTQPASASGSPGQSVTISCTGTSSDVGGYNYVSWYQQHPGKAPKLMIYDVSNRPSGVSNRFSGSKSGNTASLTISGLQAEDEADYYCSSYTSSSTLYVFGTGTQLTVLGGGGSQDGNEEMGGITQTPYKVSISGTTVILTCPQYPGSEILWQHNDKNIGGDEDDKNIGSDEDHLSLKEFSELEQSGYYVCYPRGSKPEDANFYLYLRARVCENCMEMDVMSVATIVIVDICITGGLLLLVYYWSKRGRKKLLYIFKQPFMRPVQTTQEEDGCSCRFPEEEEGGCEL
binds: all assays above
